A short description of this assay: qHTS Assay for Modulators of Lamin A Splicing. The settings on record: HeLa LMNA splicing GFP/RFP minigene ratio, 48 h. The procedure, abridged:
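Read-out is the ratio of GFP to DsRed2 object intensity, acquired by 488 nm laser-scanning cytometry on HeLa lamin A-EGFP minigene reporter cells. Compound incubation 48 hrs at 37 °C in Opti-MEM with 2% FBS; DMSO 0.5% final.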
(In general: qHTS replaces the single test concentration by a dilution series.)

The mark [1] stands for this setting: measured here: RFP viability control channel.
Where [2] appears, read: measured here: GFP splicing reporter channel.

Some of the results follow. These are further read-outs of the screen, such as a control signal, another cell line or another target. No call is given for them. Most of these compounds were active or inconclusive in the main read-out, so they are no random draw. Potencies come from curve fits of mixed quality, noted in brackets.

The term AC50 denotes the concentration at which the activity in the assay is half-maximal.

As for `CCCOC(=O)C(C)n1cnc2sc(C)c(C)c2c1=O` (stereo not drawn), the AC50 under setting [1] was 0.01 µM [falling, full curve, poor fit].

Turning to `CN1Cc2cc(C(=O)c3cc(Cl)cc(CSc4ncccn4)c3O)cnc2NC1=O`, the AC50 is 0.891 µM [rising, full curve] under setting [2] and 0.447 µM [rising, full curve] under setting [1]. Turning to `NC(=O)c1sc2nc3c(c(-c4ccccc4)c2c1N)CCC3`, the half-maximal activity concentration (AC50) under setting [1] was 22.4 µM [rising, single point]. On to `O=S(=O)(NCC(c1ccco1)N1CCN(c2ccccc2F)CC1)c1ccccc1` (stereo not drawn), for which the AC50 under setting [2] was 11.2 µM [rising, partial curve] and the concentration at half-maximal activity (AC50) under setting [1] is 14.1 µM [rising, single point]. `COc1ccc2[nH]cc(CCNC(C)=O)c2c1`: the AC50 reads like this: under setting [2], 0.0708 µM [rising, full curve, poor fit]; under setting [1], 0.000794 µM [rising, full curve, poor fit]. Take `O=C(CCCOc1ccc(Cl)cc1Cl)n1nnc2ccccc21`: the concentration at half-maximal activity (AC50) under setting [1] was 0.0501 µM [rising, full curve, poor fit].

On to `Cc1cc(/C=N/n2cnnc2)c(C)n1-c1ccccc1`, for which the half-maximal activity concentration (AC50) was 7.08 µM [falling, full curve, poor fit] under setting [2] and 10 µM [falling, partial curve, poor fit] under setting [1]. Take `COc1ccccc1Nc1ncnc2c1cnn2-c1cccc(C)c1`: the AC50 runs as follows: under setting [2], 11.2 µM [rising, partial curve, poor fit]; under setting [1], 10 µM [rising, partial curve]. For the compound `CCC(CC)c1nnc(NC(=O)c2ccc3ccccc3n2)s1`, the AC50 is 12.6 µM [falling, partial curve] under setting [2] and 28.2 µM [falling, partial curve, poor fit] under setting [1]. `O=C(Cc1c[nH]c2ccccc12)Nc1cccc(S(=O)(=O)N2CCCCC2)c1`: under setting [1], the AC50 is 28.2 µM [rising, single point]. Turning to `O=Nc1c(-c2c(O)[nH]c3ccccc23)[nH]c2ccccc12`, the half-maximal activity concentration (AC50) is, setting by setting: under setting [2], 10 µM [falling, partial curve, poor fit]; under setting [1], 7.94 µM [falling, partial curve, poor fit].

As to `COc1ccc(C(=O)CSC2=C(C#N)C3(CCCCC3)C(C#N)=C(N)N2)cc1`, the concentration at half-maximal activity (AC50) under setting [1] was 14.1 µM [rising, partial curve]. The same measure, in the same setting: as for `O=C(NCc1cccc(CNC(=O)C(=O)NCC2CCCO2)c1)C(=O)NCC1CCCO1` (stereo not drawn), the figure is 5.62 µM [falling, single point].

For `CCCn1c(SCC(=O)Nc2ccc3c(c2)CCC3)n[nH]c1=O`, under setting [1], the AC50 was 22.4 µM [rising, single point].

Turning to `O=C(Nc1cccc(Cl)c1)C1C2CCC3C(CCC21)C3(Cl)Cl` (stereo not drawn), the AC50 under setting [1] is 14.1 µM [rising, partial curve]. The same measure, in the same setting: as for `Cc1[nH]c2ccccc2c1C(=O)/C=C\c1ccccc1Cl`, the figure is 8.91 µM [rising, partial curve]; as for `COc1cccc(-c2nc(CCl)cs2)c1`, 0.562 µM [falling, full curve, poor fit].

Turning to `O=C(NC1CC(=O)N(c2cccc(F)c2)C1)c1cccs1` (stereo not drawn), the AC50 is 5.01 µM [rising, partial curve] under setting [2] and 5.62 µM [rising, single point] under setting [1].

Take `Cc1ccc2nc(-c3ccc(NC(=O)CSc4nccc(=O)[nH]4)cc3)sc2c1`: the concentration at half-maximal activity (AC50) under setting [2] is 3.98 µM [falling, full curve, poor fit] and the concentration at half-maximal activity (AC50) under setting [1] is 5.01 µM [falling, single point]. For the compound `Cc1c(CN2CCCC(C(=O)c3cccc(OC(C)C)c3)C2)c(=O)n(-c2ccccc2)n1C` (stereo not drawn), the half-maximal activity concentration (AC50) under setting [1] is 0.0282 µM [falling, full curve, poor fit].

For `O=C(COC(=O)/C(=C/c1cccs1)c1cccs1)NC(c1ccccc1)c1ccccc1`, the concentration at half-maximal activity (AC50) is 7.08 µM [rising, partial curve] under setting [2] and 12.6 µM [rising, partial curve, poor fit] under setting [1].

For the compound `Cc1ccccc1Nc1cc(C(=O)NCCCN2CCN(c3cccc(Cl)c3)CC2)c2ccccc2n1`, the AC50 under setting [1] is 14.1 µM [rising, single point].

As to `Cc1ccc(N2C(=O)N(CC(=O)Nc3ccc(C)c(C)c3[N+](=O)[O-])C(=O)C2C)cc1` (stereo not drawn), the AC50 under setting [1] was 1.26 µM [rising, partial curve]. With `CC(C)C(=O)Nc1ccc2nc(SCC(=O)N3CCCC3)sc2c1`, the AC50 under setting [1] is 6.31 µM [falling, partial curve, poor fit]. On to `CC1CCC(NC(=O)c2ccc3nc[nH]c3c2)CC1` (stereo not drawn), for which the AC50 by setting is: under setting [2], 2.82 µM [falling, full curve, poor fit]; under setting [1], 2.51 µM [falling, full curve]. Consider `Cc1ccc(SCCNC(=O)c2ccc(C)c(S(=O)(=O)Nc3cccc(C)c3)c2)cc1`, for which the AC50 runs as follows: under setting [2], 35.5 µM [falling, single point]; under setting [1], 25.1 µM [falling, single point]. `COc1ccc(Cl)cc1C(=O)Nc1ccccc1N1CCN(C(=O)C(C)C)CC1`: the half-maximal activity concentration (AC50) under setting [1] was 28.2 µM [rising, single point]. Still for that read-out and setting: as for `CC(C)c1cc(CN2CCN(Cc3ccc(F)c(F)c3)C(CCO)C2)[nH]n1` (stereo not drawn), the figure is 22.4 µM [falling, partial curve, poor fit]. Turning to `CCOc1ccc(CCNC(=O)C2CCN(C(=O)N3CC(CC)Oc4ccccc43)CC2)cc1` (stereo not drawn), under setting [2], the concentration at half-maximal activity (AC50) was 0.0316 µM [falling, full curve, poor fit]. Take `CCOCCCN(Cc1ccco1)S(=O)(=O)c1cc2c(cc1Cl)NC(=O)CO2`: the half-maximal activity concentration (AC50) under setting [2] was 0.562 µM [rising, full curve, poor fit]. With `O=C(Cn1c(-c2ccccc2)c[n+]2ccsc12)c1ccc([N+](=O)[O-])cc1`, the half-maximal activity concentration (AC50) under setting [1] is 11.2 µM [rising, partial curve]. As to `COc1cccc(CNC(=O)CCS(=O)(=O)c2ccc3c(c2)oc(=O)n3C)c1`, the AC50 was 0.00316 µM [falling, full curve, poor fit] under setting [2] and 0.01 µM [falling, full curve, poor fit] under setting [1]. Regarding `O=C(c1cc2ccccc2oc1=O)N(c1ccc(Cl)cc1)C1C=CS(=O)(=O)C1` (stereo not drawn), the AC50 under setting [1] was 17.8 µM [rising, partial curve]. On to `CN(C)S(=O)(=O)c1ccc(N2CCCC2)c(C(=O)Nc2nc3c(ccc4ccccc43)s2)c1`, for which the concentration at half-maximal activity (AC50) is, setting by setting: under setting [2], 14.1 µM [rising, single point]; under setting [1], 17.8 µM [rising, single point].

The values are drawn from PubChem BioAssay AID1487 (National Center for Advancing Translational Sciences (NCATS), 2009).
